Results as given in US20200138960A1.
These are yes or no findings as the source states them, for the method shown. Some binding calls cover weakened binding; strength is not graded here.

Molecular target: TfR1 (human, Sino Biological Inc.) (human) (UniProt P02786)
Assay: ELISA, converted values compared

binding: binds
B1: N-loop (designed binder)
chain: MSSQIRQNYHQDSEAAVNRQINLYLQASYTYLSLGFYFDRDDVALEGVSHFFRELAEEKREGYERLLKMQNQRGGRIFLQDIKKPDCDEWGKTPDAMKAAMALEKKLNQALLDLHKLATDKNDPHLCDFLETHFLDEEVKLIKKMGDHLTNLHRLGGPEAGLGEYLFERLTLKHD
